Source: paper PMC10163288
The other results are listed elsewhere or left out.

B1: il2ra_site2_3nfp_sap_21_mot_HHH_b1_01221_af2_000000126_0001_40_57_H_._HHH_b2_06118_af2_0001_0000300008_0000001_0_0001 (protein)
chain: SSSSDEEERLEELIEELRRLKEEGDRERAMEVLMELSELALEVGDEEAVRFVLEYFAELQSSSSS
B2: il2ra_site1_2b5i_normal_mot_ems_3hM_3687_af2_000000248_0001_45_64_H_._HHH_b2_00860_af2_0001_0000400030_0000001_0_af2pred_dldesign_0_af2pred (protein)
chain: SSSSNRRETLLEIERLFKEAEEEEDKEKAKELLEKALELAKKAKDEAAVKQIEEELEELKSSSSS
B3: il2ra_site1_2b5i_normal_mot_HHH_b1_01419_af2_000000080_0001_42_53_H_._HHH_b2_00795_af2_0001_0000100010_0000001_0_af2pred_dldesign_0_af2pred (protein)
chain: SSSSSSEEEKAAEVHDLALEAFKLKDKEERKKVLDKALELAKELGDEKLIAEIEYLKEKLSSSSS
B4: il2ra_site1_1z92_sap_14_mot_HHH_b1_00499_000000182_0001_1_17_H_._HHH_b2_06812_af2_0001_0000100005_0000001_0_0001_af2pred_0001_af2pred_1 (protein)
chain: SSSSTKELRELLEEADRLAKRIDREGDPRLREELEELLEEAEELGSKFLVRAIRDALELLESSSS
B5: il2ra_site1_1z92_normal_mot_HHH_b2_06855_af2_000000074_0001_38_49_H_._HHH_b2_08055_af2_0001_0000200010_0000001_0_af2pred_0001_af2pred (protein)
chain: SSSSSEETRRRRELIEQLDEAVRKGDEELLEKLLEEAEEVAKELNSRLLELMVEQAESLLSSSSS
B6: il2ra_site2_2erj_normal_mot_90f6a21de4ed711cb697bb9f61d9c40c_0001_af2_000000135_0001_36_50_H_._HHH_b2_03327_0002_0000300012_0000001_0_af2pred_0001_af2pred_swapp … (protein)
chain: SSSDREEVAKRVVEELVEELGLDERAQELLELAAESAIEAGASPEQIEIFLRLLAEELLKIASSS
B7: il2ra_site2_2erj_normal_mot_HHH_b2_04203_000000297_0001_23_39_H_._HHH_b1_07506_0001_0000100002_0000001_0_af2pred_0001_af2pred (protein)
chain: SSSSDEEERELEELLRLVEELLRQGNPEEAKEVLAKALKIALENNDQEILERLARLFLLLKSSSS
B8: il2ra_site1_3nfp_sap_14_mot_HHH_b1_04676_af2_000000031_0001_1_20_H_._HHH_b2_00375_0001_0000200007_0000001_0_0001_af2pred_0001_af2pred_1 (protein)
chain: SSSSDLMKRAAELARRILELLREGDEEEAEELIEELKEIAKERNDETAKEFVERLEERVNSSSSS
B9: il2ra_site1_3nfp_sap_10_mot_HHH_b2_00441_000000105_0001_1_18_H_._HHH_b1_08277_af2_0001_0000500008_0000001_0_0001 (protein)
chain: SSSSSSATREVLELLQRAVELAERGNPEEAKELLEEAQEIAEENNNPNLERTVEVAKKILSSSSS
B10: il2ra_site1_3nfp_sap_23_mot_HHH_b1_03424_af2_000000207_0001_40_57_H_._HHH_b1_00024_af2_0001_0000100007_0000001_1_0001 (protein)
chain: SSSSTSDEFMERLVERAFEEGDRLQLRALIRLLRHALETMGNPIAHELLEEAEELLERLRSSSSS
B11: il2ra_site1_2b5i_normal_mot_ems_3hM_3687_af2_000000248_0001_45_64_H_._HHH_b1_01139_af2_0001_0000200007_0000001_0_af2pred_dldesign_0_af2pred (protein)
chain: SSSSSAKRAEVERLLEEARTLEDVREALKVVEEALKLAEELEDEELIQRAEDLARELMTRSSSSS
B12: il2ra_site1_2b5i_sap_9_mot_HHH_b2_04463_af2_000000056_0001_43_55_H_._HHH_b2_03111_af2_0001_0000100011_0000001_1_0001_af2pred_dldesign_0_af2pred (protein)
chain: SSSSSPNHRRMAAQAKEEAEEALKEGDKETVKKLIEELEALARLLRDPEALAAAKELKEKLSSSS
B13: il2ra_site2_3nfp_sap_17_mot_HHH_b2_03589_000000206_0001_42_55_H_._HHH_b2_04493_0001_0000900041_0000001_1_0001 (protein)
chain: DEEVKEFLEKAAKLGEFSPEQIVFIAAARLLLKGLSPEEIRKLLEKVVEELGDPELEEAIKHQNQ
B14: il2ra_site2_3nfp_sap_19_mot_HHH_b2_06150_000000217_0001_39_53_H_._HHH_b1_07003_af2_0001_0000500039_0000001_0_0001_af2pred_0001_1_af2pred_swapped (protein)
chain: SSSSDLEERVEELLEQVEELLENGDPERARELLEEAARLAAKNNNEELLKEIDEIAEEVNSSSSS
B15: il2ra_site1_2b5i_sap_14_mot_HHH_b1_02697_000000175_0001_1_14_H_._HHH_b1_02394_0001_0000100006_0000001_0_0001 (protein)
chain: SSSSDVHERVDELFHEASELWRKGNPEEARKLLEEAIELAEERGDPTAEDLQQMLERIRNSSSSS
B16: il2ra_site1_1z92_sap_22_mot_203a44625a3a2ba431098544127a80a6_0001_af2_000000214_0001_15_33_H_._HHH_b1_06856_af2_0001_0000300036_0000001_0_0001_af2pred_0001_af2p … (protein)
chain: SSSSDKLERNARIIVRLLLRAAGLSEEQREELERVAKELVEEGVNREELMKILHEVALKLASSSS
B17: il2ra_site1_3nfp_normal_mot_HHH_b2_01814_000000033_0001_1_16_H_._HHH_b2_07272_0001_0000200005_0000001_0_af2pred_0001_af2pred_swapped (protein)
chain: SSSSDESREADELIKEISEAKRRGDEEEARRILEELEELAKKANSPIAELAVRKLREEIDSSSSS
B18: il2ra_site1_3nfp_sap_15_mot_HHH_b2_08182_af2_000000158_0001_1_17_H_._26d2e3f6454d5080c908b55388c9dbdf_0001_af2_0001_0000100002_0000001_0_0001 (protein)
chain: NDARAVSKVVEEAAERFGIPSVEVTVENGKLHVEVEGNDDAARAIKWAAEAAAKIAKITVEVEHE

Each binder was assayed against il2ra, P01589 (assay: yeast display titration).

Apparent Kd, inactive:
B1 no binding seen
B2 no binding seen
B3 no binding seen
B4 no binding seen
B5 no binding seen
B6 no binding seen
B7 no binding seen
B8 no binding seen
B9 no binding seen
B10 no binding seen
B11 no binding seen
B12 no binding seen
B13 no binding seen
B14 no binding seen
B15 no binding seen
B16 no binding seen
B17 no binding seen
B18 no binding seen

A stretch from further up:
Apparent Kd, inactive:
B7 no binding seen
B8 no binding seen
